# Values quoted from earlier work in US20080166406A1, “Rapidly Disintegrating Dosage Form Comprising Magnesium Carbonate Heavy” (priority 2005, published 2008).
# At least one compound was matched to its structure with a doubt left.
# Details: general statement
compound,measurement,value
Cc1cc2c(s1)Nc1ccccc1N=C2N1CCN(C)CC1 [Olanzapine],Sensitivity to light and moisture,sensitive to both light and moisture
